Reference: ChEMBL document CHEMBL3600372, “Scapairrins A-Q, Labdane-Type Diterpenoids from the Chinese Liverwort Scapania irrigua and Their Cytotoxic Activity” (J Nat Prod, 2015)

System: A549
Test: Cytotoxicity against human A549 cells after 24 hrs by MTT assay
Format: functional, cell-based
Conditions: A549, 24 h

## COc1cccc2c1C(=O)c1c(O)c3c(c(O)c1C2=O)C[C@@](O)(C(=O)CO)C[C@@H]3O[C@H]1C[C@H](N)[C@H](O)[C@H](C)O1 [DOXORUBICIN]
  IC50: 0.8 µM
